The text below walks through data of PMC3046137.

By UniProt entry, the sequences of proteins in these tests, tags left out.
UniProt P40337: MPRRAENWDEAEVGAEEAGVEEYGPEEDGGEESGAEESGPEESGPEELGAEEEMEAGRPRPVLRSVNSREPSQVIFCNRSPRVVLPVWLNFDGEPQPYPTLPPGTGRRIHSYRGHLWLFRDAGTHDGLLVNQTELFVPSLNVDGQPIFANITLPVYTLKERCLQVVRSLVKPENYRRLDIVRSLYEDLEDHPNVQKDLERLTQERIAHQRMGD
UniProt Q15370: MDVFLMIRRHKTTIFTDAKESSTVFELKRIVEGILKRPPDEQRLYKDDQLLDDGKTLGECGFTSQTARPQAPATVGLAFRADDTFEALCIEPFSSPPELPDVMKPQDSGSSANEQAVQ

The assay deals with T1, FLAG-p160 (Myb-binding protein p160) (UniProt Q7TPV4).
T1 sequence: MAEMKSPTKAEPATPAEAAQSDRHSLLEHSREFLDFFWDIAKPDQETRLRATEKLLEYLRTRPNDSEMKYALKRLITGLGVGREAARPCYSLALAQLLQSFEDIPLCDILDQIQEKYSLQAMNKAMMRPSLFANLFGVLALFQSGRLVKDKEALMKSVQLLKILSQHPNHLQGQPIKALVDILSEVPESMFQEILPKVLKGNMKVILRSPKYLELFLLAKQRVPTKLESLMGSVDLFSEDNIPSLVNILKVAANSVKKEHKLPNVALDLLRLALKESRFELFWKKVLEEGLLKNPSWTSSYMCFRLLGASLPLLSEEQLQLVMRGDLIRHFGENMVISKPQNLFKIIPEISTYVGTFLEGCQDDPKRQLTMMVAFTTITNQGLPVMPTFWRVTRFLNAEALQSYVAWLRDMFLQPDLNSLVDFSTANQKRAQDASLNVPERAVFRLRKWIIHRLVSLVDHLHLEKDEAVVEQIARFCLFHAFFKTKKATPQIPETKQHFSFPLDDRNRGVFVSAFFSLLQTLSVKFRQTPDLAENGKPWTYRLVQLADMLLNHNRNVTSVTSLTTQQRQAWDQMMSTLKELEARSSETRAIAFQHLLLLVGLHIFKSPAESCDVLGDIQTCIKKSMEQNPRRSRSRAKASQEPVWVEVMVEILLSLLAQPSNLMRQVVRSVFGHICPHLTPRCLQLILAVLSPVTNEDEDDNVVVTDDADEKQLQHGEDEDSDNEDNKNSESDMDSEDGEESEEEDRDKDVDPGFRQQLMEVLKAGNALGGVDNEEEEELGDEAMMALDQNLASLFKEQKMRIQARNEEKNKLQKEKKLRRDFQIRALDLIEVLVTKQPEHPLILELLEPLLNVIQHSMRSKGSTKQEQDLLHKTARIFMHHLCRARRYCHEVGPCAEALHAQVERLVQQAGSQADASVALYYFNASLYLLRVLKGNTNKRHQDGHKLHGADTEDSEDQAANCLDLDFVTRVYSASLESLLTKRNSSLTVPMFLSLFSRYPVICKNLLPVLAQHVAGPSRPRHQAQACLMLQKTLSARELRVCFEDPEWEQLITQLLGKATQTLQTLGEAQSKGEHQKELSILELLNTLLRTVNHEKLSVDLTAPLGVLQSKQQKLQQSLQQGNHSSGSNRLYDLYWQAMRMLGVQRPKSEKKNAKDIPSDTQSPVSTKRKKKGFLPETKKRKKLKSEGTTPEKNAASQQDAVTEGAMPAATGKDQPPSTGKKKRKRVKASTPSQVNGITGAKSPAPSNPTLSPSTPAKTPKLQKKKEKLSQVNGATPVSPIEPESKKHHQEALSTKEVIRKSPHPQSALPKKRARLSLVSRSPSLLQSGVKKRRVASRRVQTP
Put plainly: affinity purification with mass spectrometry; anti-FLAG immunoprecipitation of FLAG-p160 from transfected 293T cells under non-denaturing conditions; compared with FLAG empty vector immunoprecipitate by ICAT quantitative proteomics (IP-ICAT).

No constants are given. Whether binding was seen depends on the method and setting. In cells and extracts the contact can be indirect. A yes stands for co-enrichment or nearness to the bait. Other partners may have been found. Where a sequence is shown, tags or fusion partners need not be part of it.

“VHL (endogenous, 293T cells) (from UniProt P40337 1-213)”: the binding result was “binds”. Consider “elongin B (endogenous, 293T cells) (from UniProt Q15370 1-118)”, for which the binding entry is reported as “binds”.
